Data set [1] has as its target SMAD3 MH1 (Homo sapiens) (UniProt P84022). Put plainly: EMSA. The settings on record: EMSA: 25 mM Tris-HCl (pH not given for binding buffer; RNA stock pH 7.5), 115 mM KCl, 1 mM MgCl2, 1 mM DTT, 20 ng/ul poly I:C, 0.1 mg/ml BSA, 10% glycerol, on ice 2 h, recombinant protein, residues 1-132, protein details: 6xHis-SUMO cleaved; for binding result: single screen. On the technique in general: A gel shift assay detects complexes by their altered migration in electrophoresis.

Sequences of proteins named here, by UniProt entry; tags and fusion partners are left off. Residues count along the entry.
UniProt P84022, 1-132: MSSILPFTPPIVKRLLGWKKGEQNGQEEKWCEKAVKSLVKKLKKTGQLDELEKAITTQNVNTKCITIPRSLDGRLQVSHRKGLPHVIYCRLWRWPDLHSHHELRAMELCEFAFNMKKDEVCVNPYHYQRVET

Data set [2] shares this target. Put plainly: competition with a labelled probe. The conditions noted are these: vs 1 nM labeled dsDNA 19, 350 nM SMAD3 MH1; EMSA: 25 mM Tris-HCl (pH not given for binding buffer; RNA stock pH 7.5), 115 mM KCl, 1 mM MgCl2, 1 mM DTT, 20 ng/ul poly I:C, 0.1 mg/ml BSA, 10% glycerol, on ice 2 h; recombinant protein; residues 1-132; protein details: 6xHis-SUMO cleaved; label: 5' 32P (EMSA), unlabeled as competitor.

A word on the Kd: it is the concentration at which binding is half-saturated.

A weaker result is weaker than the reference pair of the same experiment. For some assays here: The exact form of at least one protein or probe is not confirmed. For some assays here: At least one verdict was read from the data and is not stated in words by the source.

Turning to “GGACGAUUGACAGACAAUAUGCGUUCGCGCAGUUUGUCUGUCAUUCGUCC [4a hsa-miR-215 central stem]”, the binding result in the data set with SMAD3 MH1 (Homo sapiens) [1] (label: 5' 32P) is recorded as “binds more weakly”.
As to “GGAUCGAUCGAUCGAUCGGCAUCGAUCGGCUUCGGCCGAUCGAUGCCGAUCGAUCGAUCGAUCC [16 30-bp hairpin]”, the binding result with SMAD3 MH1 (Homo sapiens) [2] is listed as “binds more weakly”.
Consider “GGACAAUCAGACUACCUGUUUCGACAGGUAGUCUGCUUGUCC [3b hsa-miR-199a1 minimal SBE]”, for which, in the data set with SMAD3 MH1 (Homo sapiens) [1] (label: 5' 32P), the binding result is recorded as “binds more weakly”.
As to “GGUGAGGUAGUAUGUAAGCUUCGGCUUUCAACUAACUCGCC [9b cel-miR-84 short]”, the binding result with SMAD3 MH1 (Homo sapiens) [1] (label: 5' 32P) was “binds more weakly”.
For the sequence “GGACGCUCUUGUCUGUCAGGCAGUGGAGUUACUUACAGACAAGAGCGUCC [7a hsa-miR-600 natural loop]”, the binding result in the data set with SMAD3 MH1 (Homo sapiens) [1] (label: 5' 32P) is on record as “binds more weakly”.
Turning to “UCAACAUCAGUCUGAUAAGCUA / UAGCUUAUCAGACUGAUGUUGA [15 miR-21 RNA duplex]”, the Kd with SMAD3 MH1 (Homo sapiens) [1] (label: 5' 32P on one strand) is > 10 µM.
For the sequence “GGACGAUGCUCAGACUCCUGUGUUCGCACGGAUGUUUGAGCAUCGUCC [2a pri-miRNA central stem (name elided in material)]”, the binding result with SMAD3 MH1 (Homo sapiens) [1] (label: 5' 32P) is listed as “binds more weakly”.
Turning to “GUAUGUCUAGACUGAA / TTCAGTCTAGACATAC [13 RNA/DNA hybrid duplex with 2 SBEs]”, the Kd with SMAD3 MH1 (Homo sapiens) [1] (label: 5' 32P on one strand, DNA:RNA hybrid) was > 10 µM.
Consider “GGACGUUAAAUGUUUGUUGAGCGUUCGCGCUCAACAGACAUUAAUCGUCC [5a pri-miRNA central stem (name elided in material)]”, for which the binding result in the data set with SMAD3 MH1 (Homo sapiens) [1] (label: 5' 32P) was “binds more weakly”.
Turning to “GGACGUGGCCCAGACCUCAGCUUCGGCUGAUGGACUGAGUCACGUCC [8a hsa-miR-631 central stem]”, the binding result with SMAD3 MH1 (Homo sapiens) [1] (label: 5' 32P) is on record as “binds more weakly”.
The same measure, in the same setting: then “GGACGAUUGACAGACAAUAUAGCUGAGUUUGUCUGUCAUUCGUCC [4b hsa-miR-215 natural loop]”, with “binds more weakly”.
“UUUUUUUUUUUUUUUUUUUUUUUUUUUUUUUUUUUUUUUUUUUUUUUUUUUUUUU [12 U55]”: the equilibrium dissociation constant (Kd) in the data set with SMAD3 MH1 (Homo sapiens) [1] (label: 5' 32P) is > 10 µM.
As to “GUAUGUCUAGACUGAA / UUCAGUCUAGACAUAC [14 dsRNA duplex with 2 SBEs]”, the Kd with SMAD3 MH1 (Homo sapiens) [1] (label: 5' 32P on one strand) was > 10 µM.
Consider “GGACAACCAGUGUUCAGACUACCUGUUUCGACAGUAGUCUGCACACUGGUUGUCC [3a hsa-miR-199a-1 central stem]”, for which the binding result with SMAD3 MH1 (Homo sapiens) [1] (label: 5' 32P) is “binds more weakly”.

For the origin of these results see publication PMC5714123.
